Results published in patent publication US20050208487A1.
For at least one entry, the source does not settle the construct or the ends of the probe. For some assays here: Whether high values mean tight binding is not given here for every scale.

Legend:
[1] = biological target: GnRH (gonadotropin-releasing hormone, L-decapeptide Pyr-His-Trp-Ser-Tyr-Gly-Leu-Arg-Pro-Gly-NH2) (UniProt Q28588); experiment: pull-down; conditions: buffer A, RT, synthetic protein, mirror-image nucleic acid, variant of GnRH-binding DNA Spiegelmer 1
[2] = biological target: GnRH (gonadotropin-releasing hormone, L-decapeptide Pyr-His-Trp-Ser-Tyr-Gly-Leu-Arg-Pro-Gly-NH2) (UniProt Q28588); experiment: binding assay; conditions: L-DNA (all nucleotides); equilibrium dialysis, 10 uM Spiegelmer, twice purified 3H-GnRH, 87±2%; 41% with unpurified GnRH; buffer A; synthetic protein; synthetic backbone; mirror-image nucleic acid

GCGGCGGAGGGTGGGCTGGGGCTGGGCCGGGGGGCGTGCGTAAGCACGTAGCCTCGCCGC [D-enantiomer of the GnRH Spiegelmer]
binding signal (% radioactivity retained) ([1]; D-enantiomer control on Sepharose, 0.8% eluted, no interaction with GnRH, label: on NHS Sepharose 4 Fast Flow, single-stranded DNA, counted as no binding): 4.2

GCGGCGGAGGGTGGGCTGGGGCTGGGCCGGGGGGCGTGCGTAAGCACGTAGCCTCGCCGC [DNA Spiegelmer 2 (5'-biotinylated)]
binding signal (% radioactivity retained) ([1]; L-DNA (all nucleotides), neutravidin agarose, 34.5% eluted, background 2%, about 81% of GnRH, label: 5'-biotin, on neutravidin agarose, synthetic backbone): 36.5

GCGGCGGAGGGTGGGCTGGGGCTGGGCCGGGGGGCGTGCGTAAGCACGTAGCCTCGCCGC [DNA Spiegelmer 3 (5'-aminohexyl)]
binding signal (% radioactivity retained) ([1]; L-DNA (all nucleotides), 5'-aminohexyl, Sepharose, 34% eluted, background 6%, 45% pure 3H-GnRH so about 89% of GnRH, 89% retained with twice purified GnRH (p128), label: covalently on NHS Sepharose 4 Fast Flow, synthetic backbone): 40

GCGGCGGAGGGTGGGCTGGGGCTGGGCCGGGGGGCGTGCGTAAGCACGTAGCCTCGCCGC [DNA Spiegelmer 4 (5'-phosphorylated)]
binding signal (% radioactivity retained) ([1]; L-DNA (all nucleotides), 5'-spacer 9 and 5'-phosphate, CPG 3000, 20.7% eluted, background 2.3%, 73% retained with twice purified GnRH (p128), label: covalently on 3000A lcaa-CPG, synthetic backbone): 23

GCGGCGGAGGGTGGGCTGGGGCTGGGCCGGGGGGCGTGCGTAAGCACGTAGCCTCGCCGC [GnRH-binding DNA Spiegelmer 1]
binding signal [2]: 87 % bound
